# Measurements reported in article PMC8468827.
# Chains of the proteins cited; added tags and fusions are not shown. Lines headed by an entry give the natural chain unless they say otherwise; changes in a name come on top.
# UniProt Q9VQ93: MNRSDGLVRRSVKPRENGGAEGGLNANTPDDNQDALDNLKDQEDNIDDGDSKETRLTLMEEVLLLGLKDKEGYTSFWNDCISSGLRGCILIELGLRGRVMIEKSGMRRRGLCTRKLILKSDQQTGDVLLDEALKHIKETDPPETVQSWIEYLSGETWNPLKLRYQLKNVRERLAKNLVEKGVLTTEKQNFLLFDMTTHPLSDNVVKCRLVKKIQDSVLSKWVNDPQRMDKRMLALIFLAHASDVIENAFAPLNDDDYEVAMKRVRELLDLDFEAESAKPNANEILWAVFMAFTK
# UniProt P40793: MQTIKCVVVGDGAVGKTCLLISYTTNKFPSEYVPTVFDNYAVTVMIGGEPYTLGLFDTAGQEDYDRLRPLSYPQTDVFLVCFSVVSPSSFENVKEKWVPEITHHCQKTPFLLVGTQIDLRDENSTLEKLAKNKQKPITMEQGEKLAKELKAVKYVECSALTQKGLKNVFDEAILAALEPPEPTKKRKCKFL
# UniProt O96860: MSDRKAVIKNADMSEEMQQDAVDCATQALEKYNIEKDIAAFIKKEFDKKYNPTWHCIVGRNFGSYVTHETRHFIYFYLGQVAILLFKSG
# UniProt Q9VL10: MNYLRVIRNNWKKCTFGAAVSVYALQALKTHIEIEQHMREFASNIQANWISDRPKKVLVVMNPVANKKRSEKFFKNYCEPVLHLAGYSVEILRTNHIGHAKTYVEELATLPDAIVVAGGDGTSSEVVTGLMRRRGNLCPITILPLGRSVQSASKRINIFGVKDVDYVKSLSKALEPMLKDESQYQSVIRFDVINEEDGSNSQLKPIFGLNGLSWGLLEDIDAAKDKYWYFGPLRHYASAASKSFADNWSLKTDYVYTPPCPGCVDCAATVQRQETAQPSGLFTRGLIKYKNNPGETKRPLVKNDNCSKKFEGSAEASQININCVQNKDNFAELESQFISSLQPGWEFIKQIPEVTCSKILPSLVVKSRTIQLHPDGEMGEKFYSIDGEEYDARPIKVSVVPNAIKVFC
# UniProt Q9VJY4: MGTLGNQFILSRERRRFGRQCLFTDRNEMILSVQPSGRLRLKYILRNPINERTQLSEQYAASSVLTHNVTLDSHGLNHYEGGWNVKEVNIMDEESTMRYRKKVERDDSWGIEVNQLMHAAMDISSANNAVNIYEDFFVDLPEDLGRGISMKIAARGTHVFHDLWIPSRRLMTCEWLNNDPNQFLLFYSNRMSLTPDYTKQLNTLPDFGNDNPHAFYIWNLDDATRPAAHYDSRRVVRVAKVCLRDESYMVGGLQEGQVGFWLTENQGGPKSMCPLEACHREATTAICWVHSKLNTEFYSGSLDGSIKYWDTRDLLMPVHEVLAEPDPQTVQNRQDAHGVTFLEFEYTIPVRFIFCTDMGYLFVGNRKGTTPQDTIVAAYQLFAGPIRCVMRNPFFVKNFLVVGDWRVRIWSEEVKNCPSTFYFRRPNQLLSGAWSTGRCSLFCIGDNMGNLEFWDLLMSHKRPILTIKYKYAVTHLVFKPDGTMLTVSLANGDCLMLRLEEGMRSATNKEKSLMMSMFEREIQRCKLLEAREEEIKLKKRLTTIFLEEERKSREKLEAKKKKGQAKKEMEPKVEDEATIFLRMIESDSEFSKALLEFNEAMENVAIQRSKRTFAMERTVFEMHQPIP
# UniProt Q86BK8: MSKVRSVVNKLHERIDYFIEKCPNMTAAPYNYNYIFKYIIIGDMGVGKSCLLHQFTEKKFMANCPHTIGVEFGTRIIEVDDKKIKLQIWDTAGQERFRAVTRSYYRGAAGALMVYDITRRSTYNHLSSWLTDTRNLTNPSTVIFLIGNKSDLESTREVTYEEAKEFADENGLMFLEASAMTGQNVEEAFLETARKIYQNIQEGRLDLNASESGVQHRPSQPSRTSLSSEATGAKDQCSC
# UniProt Q9VNF8: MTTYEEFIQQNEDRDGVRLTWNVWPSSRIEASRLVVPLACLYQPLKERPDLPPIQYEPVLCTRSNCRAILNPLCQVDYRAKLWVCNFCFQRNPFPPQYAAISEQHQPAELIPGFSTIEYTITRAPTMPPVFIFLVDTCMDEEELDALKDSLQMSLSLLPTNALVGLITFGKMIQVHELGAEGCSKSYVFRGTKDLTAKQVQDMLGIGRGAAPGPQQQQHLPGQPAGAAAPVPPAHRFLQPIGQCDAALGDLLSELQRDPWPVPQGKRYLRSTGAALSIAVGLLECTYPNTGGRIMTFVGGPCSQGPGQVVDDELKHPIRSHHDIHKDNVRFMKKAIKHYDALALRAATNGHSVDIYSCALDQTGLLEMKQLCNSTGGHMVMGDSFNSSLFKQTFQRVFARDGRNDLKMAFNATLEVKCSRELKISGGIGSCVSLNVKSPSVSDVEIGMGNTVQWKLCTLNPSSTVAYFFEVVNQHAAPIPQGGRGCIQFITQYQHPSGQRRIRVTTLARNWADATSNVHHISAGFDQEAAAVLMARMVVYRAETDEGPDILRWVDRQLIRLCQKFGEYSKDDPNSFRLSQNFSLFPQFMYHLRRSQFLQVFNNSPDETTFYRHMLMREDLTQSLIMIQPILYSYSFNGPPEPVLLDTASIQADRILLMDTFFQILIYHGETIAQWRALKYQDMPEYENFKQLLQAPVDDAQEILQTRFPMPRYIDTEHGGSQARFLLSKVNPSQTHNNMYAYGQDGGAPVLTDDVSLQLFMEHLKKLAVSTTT
# UniProt Q9VEX2: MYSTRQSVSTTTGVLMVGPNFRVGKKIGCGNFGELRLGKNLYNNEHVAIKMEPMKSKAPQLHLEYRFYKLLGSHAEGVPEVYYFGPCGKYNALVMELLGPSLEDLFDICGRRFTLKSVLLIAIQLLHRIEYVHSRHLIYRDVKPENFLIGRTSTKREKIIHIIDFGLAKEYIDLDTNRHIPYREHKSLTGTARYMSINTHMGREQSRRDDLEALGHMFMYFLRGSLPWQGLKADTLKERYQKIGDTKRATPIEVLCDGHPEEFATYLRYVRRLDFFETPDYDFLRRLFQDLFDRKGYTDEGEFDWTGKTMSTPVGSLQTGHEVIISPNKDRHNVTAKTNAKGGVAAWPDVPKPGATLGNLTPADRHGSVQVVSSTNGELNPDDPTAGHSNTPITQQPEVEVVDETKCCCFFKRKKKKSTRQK
# UniProt A1Z7J7: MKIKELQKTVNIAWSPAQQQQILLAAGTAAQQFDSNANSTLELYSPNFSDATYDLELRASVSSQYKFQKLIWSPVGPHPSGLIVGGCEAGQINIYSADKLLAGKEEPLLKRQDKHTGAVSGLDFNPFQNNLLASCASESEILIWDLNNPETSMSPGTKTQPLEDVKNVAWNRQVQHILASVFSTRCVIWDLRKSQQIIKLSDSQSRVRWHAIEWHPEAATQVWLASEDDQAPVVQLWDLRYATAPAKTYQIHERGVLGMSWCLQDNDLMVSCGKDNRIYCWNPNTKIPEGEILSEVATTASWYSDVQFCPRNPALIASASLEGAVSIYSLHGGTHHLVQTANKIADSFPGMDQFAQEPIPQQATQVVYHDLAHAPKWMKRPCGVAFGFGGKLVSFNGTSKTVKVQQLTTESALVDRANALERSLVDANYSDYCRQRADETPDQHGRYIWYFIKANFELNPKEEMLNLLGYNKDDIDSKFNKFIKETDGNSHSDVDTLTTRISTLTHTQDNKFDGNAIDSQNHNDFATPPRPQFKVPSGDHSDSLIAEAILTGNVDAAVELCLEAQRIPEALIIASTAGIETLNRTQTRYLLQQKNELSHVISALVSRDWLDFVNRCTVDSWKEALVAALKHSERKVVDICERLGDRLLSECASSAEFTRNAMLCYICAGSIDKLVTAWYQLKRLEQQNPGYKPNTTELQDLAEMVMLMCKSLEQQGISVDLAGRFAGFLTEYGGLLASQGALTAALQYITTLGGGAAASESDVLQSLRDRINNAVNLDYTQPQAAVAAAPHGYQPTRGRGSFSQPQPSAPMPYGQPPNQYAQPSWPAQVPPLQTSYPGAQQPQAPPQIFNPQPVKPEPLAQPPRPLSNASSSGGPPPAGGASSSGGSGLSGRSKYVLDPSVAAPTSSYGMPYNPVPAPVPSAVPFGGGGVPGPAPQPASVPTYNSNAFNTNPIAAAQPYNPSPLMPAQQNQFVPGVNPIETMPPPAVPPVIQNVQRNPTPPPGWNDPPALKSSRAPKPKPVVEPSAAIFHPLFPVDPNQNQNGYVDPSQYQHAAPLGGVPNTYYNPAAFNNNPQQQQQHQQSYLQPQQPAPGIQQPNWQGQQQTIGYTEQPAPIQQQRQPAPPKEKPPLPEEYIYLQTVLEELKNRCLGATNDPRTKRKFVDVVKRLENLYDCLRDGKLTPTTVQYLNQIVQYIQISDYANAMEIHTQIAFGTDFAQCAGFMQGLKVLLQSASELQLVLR
# UniProt Q7K110: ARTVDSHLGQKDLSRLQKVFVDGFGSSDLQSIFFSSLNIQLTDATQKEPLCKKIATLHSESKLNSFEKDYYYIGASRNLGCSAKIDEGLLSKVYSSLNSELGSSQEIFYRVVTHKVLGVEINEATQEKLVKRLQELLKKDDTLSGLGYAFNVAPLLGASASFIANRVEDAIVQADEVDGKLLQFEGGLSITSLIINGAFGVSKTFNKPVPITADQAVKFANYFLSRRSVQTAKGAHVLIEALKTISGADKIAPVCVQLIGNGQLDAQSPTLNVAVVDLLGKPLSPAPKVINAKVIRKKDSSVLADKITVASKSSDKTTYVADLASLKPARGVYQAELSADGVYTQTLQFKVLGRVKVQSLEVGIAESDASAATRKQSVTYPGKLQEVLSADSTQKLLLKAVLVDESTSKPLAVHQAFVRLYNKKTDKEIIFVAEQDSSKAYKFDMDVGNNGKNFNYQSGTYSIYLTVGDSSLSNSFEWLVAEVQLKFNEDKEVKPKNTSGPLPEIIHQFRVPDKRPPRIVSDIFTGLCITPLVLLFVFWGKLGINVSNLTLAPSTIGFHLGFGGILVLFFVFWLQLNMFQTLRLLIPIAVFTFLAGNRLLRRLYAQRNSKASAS
# UniProt Q7KN62: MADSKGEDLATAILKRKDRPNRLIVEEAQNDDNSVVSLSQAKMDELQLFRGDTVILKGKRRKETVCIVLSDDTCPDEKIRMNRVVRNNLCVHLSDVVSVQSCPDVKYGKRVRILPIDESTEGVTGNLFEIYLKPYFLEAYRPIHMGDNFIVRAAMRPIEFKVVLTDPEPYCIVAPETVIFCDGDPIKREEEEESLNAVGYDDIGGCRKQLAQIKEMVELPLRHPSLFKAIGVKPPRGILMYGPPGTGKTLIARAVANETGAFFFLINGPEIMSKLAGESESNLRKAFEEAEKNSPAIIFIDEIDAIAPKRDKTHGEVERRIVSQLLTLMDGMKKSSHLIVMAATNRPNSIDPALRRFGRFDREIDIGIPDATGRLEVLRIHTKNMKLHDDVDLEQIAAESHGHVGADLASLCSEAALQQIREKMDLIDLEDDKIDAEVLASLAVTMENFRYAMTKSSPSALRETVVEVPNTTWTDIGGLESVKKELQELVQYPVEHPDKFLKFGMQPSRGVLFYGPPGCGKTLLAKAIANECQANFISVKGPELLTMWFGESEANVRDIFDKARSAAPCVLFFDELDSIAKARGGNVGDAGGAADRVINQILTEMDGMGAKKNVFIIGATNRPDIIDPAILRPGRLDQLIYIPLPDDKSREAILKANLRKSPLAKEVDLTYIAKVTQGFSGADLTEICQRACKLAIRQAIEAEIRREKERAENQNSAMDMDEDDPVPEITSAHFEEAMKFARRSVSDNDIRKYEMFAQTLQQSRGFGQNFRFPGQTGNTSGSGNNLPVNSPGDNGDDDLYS
# UniProt Q9VGL9: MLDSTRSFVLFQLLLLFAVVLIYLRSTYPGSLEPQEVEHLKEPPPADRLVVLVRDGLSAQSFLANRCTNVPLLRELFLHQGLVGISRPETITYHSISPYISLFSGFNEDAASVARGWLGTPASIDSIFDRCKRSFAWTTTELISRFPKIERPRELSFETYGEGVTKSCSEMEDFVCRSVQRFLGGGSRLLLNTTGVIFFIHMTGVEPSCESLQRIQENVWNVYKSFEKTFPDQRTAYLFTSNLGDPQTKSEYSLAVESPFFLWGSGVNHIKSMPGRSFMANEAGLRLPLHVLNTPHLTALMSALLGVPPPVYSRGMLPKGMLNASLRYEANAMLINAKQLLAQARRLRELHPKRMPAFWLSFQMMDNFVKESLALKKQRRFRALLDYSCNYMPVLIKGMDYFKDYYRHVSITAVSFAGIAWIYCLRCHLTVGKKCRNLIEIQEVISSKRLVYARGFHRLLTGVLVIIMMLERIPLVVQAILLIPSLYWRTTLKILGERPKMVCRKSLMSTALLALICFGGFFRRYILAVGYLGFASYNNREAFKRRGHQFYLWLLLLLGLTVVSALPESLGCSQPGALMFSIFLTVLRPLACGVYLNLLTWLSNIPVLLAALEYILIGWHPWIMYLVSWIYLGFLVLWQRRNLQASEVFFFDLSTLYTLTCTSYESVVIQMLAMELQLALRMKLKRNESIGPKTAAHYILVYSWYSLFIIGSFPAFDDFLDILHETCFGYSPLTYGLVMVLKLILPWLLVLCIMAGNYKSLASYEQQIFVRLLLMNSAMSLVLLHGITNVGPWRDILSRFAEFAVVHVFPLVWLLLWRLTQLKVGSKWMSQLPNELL
# Molecular target: dGOLPH3-mRFP (Drosophila) (UniProt Q9VQ93)
# Experiment: affinity purification with mass spectrometry; RFP-trap beads on lysate of 3000 adult testes expressing dGOLPH3-RFP (RFP alone as control); lysis buffer 25 mM Tris-HCl pH 7.4, 150 mM NaCl, 1 mM EDTA, 1% NP-40; washes at 4 °C; nanoLC-MS/MS
row,Substance,binding
1,CG6790 (from UniProt Q9VGM0),binds
2,Rab1 (from UniProt O18332 1-205),binds
3,dFmr1 (from UniProt Q9NFU0 1-684),binds
4,Cdc42 (from UniProt P40793 1-191),binds
5,Cytoplasmic dynein light chain 2 (Cdlc2) (from UniProt O96860 1-89),binds
6,Multi-substrate lipid kinase (Mulk) (from UniProt Q9VL10),binds
7,Ergic53 (from UniProt Q9V3A8),binds
8,CG10859 (from UniProt Q9VJY4),binds
9,Rab14 (from UniProt Q86BK8 1-239),binds
10,Sec23 (from UniProt Q9VNF8 1-773),binds
11,Cut up (Ctp) (from UniProt Q24117 1-89),binds
12,Gilgamesh (Gish) (from UniProt Q9VEX2 1-422),binds
13,Uridine diphosphate (UDP)-glucose:glycoprotein glucosyltransferase (from UniProt Q09332 23-1548),binds
14,Rab8 (from UniProt O18338 1-207),binds
15,Sec31 (from UniProt A1Z7J7),binds
16,Sec63 (from UniProt Q9VS57),binds
17,PAPLA1 (from UniProt Q9VLS7 1-2016),binds
18,OstΔ (from UniProt Q7K110),binds
19,"Transitional endoplasmic reticulum 94, TER94 (from UniProt Q7KN62 1-801)",binds
20,CG4907 (from UniProt Q9VCV7),binds
21,CG5342 (from UniProt Q9VGL9),binds
22,clathrin heavy chain subunit (Chc) (from UniProt P29742 1-1678),binds

# No constants are given. Whether binding was seen depends on the method and setting. Binding seen in cells or lysates may run through a third protein. These calls come from enrichment with a bait or labelling near it, and not all partners need be listed.
